PubChem BioAssay AID652272, Drosophila RNAi Screening Center, 2013
The screen tested about 21,000 reagents; shown is a random part of those that have a named target and a result. Of all reagents, 503 (2.4%) were called active. 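Raw plate light values, not normalised; calls rest on replicate z-scores that were not deposited; hits include reporter decreases as well as increases.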 Unmarked entries are inactive. The record does not give: the amount of reagent, the time to read-out.

Screen: 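Finding fly genes that regulate Hedgehog signal transduction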 (primary screen)
System: Drosophila clone 8 (Cl8) cells
Knock-down reagent: long dsRNA against Drosophila genes
Detection: 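Firefly light from a Hedgehog-responsive ptc promoter reporter and Renilla reference light, both read on a plate reader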
Scale: firefly Hh reporter signal: higher = more ptc reporter light; Renilla reference signal: higher = more Renilla control light
Active means: 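Called a hit if the two-replicate mean z-score lies below -2 or above +3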
Calls: active = hit: reporter lowered or raised; inactive = not a hit

Gene | PubChem SID | firefly Hh reporter signal, replicate 1 | firefly Hh reporter signal, replicate 2 | firefly Hh reporter signal, replicate 3 | Renilla reference signal, replicate 1 | Renilla reference signal, replicate 2
CG9106 | SID104199946 | 1.29e5 | 96885 | – | 2806 | 2568
CG13358 | SID104198326 | 91968 | 2.42e5 | – | 3225 | 7456
Cmpk | SID104196435 | 1.20e5 | 1.23e5 | – | 2770 | 3003
CG13978 | SID104194512 | 1.29e5 | 1.19e5 | – | 4420 | 2378
CG15312 | SID104197792 | 78133 | 70612 | – | 1642 | 1632
Saf6 | SID104180425 | 79010 | 74603 | – | 3722 | 3365
ben | SID104200102 | 70583 | 73723 | – | 1520 | 1685
ben | SID104201053 | 1.10e5 | 2.95e5 | – | 3800 | 11992
ato | SID104196696 | 58420 | 87400 | – | 1648 | 2633
IA-2 | SID104180096 | 1.24e5 | 6.30e5 | 87280 | 5750 | 3304
IA-2 | SID104180444 | 91651 | 1.05e5 | – | 4256 | 5202
Schip1 | SID104182643 | 1.19e5 | 51730 | – | 3349 | 5585
CG31326 | SID104196324 | 76433 | 79685 | – | 1205 | 1682
CG7565 | SID104190673 | 1.05e5 | 73920 | – | 4460 | 2723
CG3347 | SID104180389 | 1.16e5 | 60338 | – | 2924 | 5776
Galphai | SID104190960 | 1.14e5 | 65724 | – | 4948 | 2946
UbcE2H | SID104198013 | 1.12e5 | 88296 | – | 2309 | 1940
CG13428 | SID104186182 | 1.40e5 | 53656 | – | 3632 | 304
CG10801 | SID104197553 | 58604 | 1.51e5 | – | 1312 | 5127
BCAS2 | SID104195485 | 94345 | 91664 | – | 2243 | 2604
CG14770 | SID104197739 | 71016 | 2.27e5 | – | 1115 | 8906
CG13474 | SID104189810 | 78459 | – | – | 2778 | 2640
Kr-h2 | SID104183148 | 1.24e5 | 44513 | – | 3287 | 4769
